The supplement of paper PMC12823440, “Inhibitors supercharge kinase turnover through native proteolytic circuits” (Nature, 2025)
Where a name gives a salt, the structure may show the parent alone. Some of the results follow. Hit calls seldom repeat between salt and free forms of one compound.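 In K562 cells expressing nanoluciferase-fused kinases, luminescence was recorded at 4 h intervals between 2 and 18 h, normalized as percent of control with DMSO at 100% and a positive control at 0%. A significant (2 sigma) signal drop marks a time point as decreased. The authors' rule for a hit is not shown and takes in more than the number of time points.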

Protein sequences, listed by entry. Tags and fused reporters are not part of them.
UniProt Q00534, whole entry: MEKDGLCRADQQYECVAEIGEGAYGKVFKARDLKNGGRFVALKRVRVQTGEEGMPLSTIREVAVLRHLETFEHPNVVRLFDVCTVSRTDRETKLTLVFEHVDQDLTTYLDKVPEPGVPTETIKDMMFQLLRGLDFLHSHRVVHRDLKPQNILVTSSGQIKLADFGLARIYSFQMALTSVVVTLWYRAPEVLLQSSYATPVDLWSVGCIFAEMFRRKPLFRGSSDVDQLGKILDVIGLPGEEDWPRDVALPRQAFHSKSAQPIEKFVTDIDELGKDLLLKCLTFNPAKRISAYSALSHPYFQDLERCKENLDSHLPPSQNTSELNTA

molecular target: CDK6 (UniProt Q00534); test: number of time points (of 5) at which kinase-Nluc abundance scored as decreased, DMSO-normalised (count); higher = more persistent destabilization; conditions: K562; 2-18 h

| SMILES | number of time points |
| --- | --- |
| Cc1c(Cn2c(C)nc3c(C(=O)O)cc(N4CCOCC4)cc32)cccc1C(F)(F)F (10 µM) | 0 |
| Cc1c[nH]c2nccc(Oc3c(F)cc(Nc4cc(Cl)nc(N)n4)cc3F)c12 (10 µM) | 0 |
| CC(C)CC(=O)Nc1n[nH]c2c1CN(C(=O)C1CCN(C)CC1)C2(C)C (2.5 µM) | 0 |
| CCN(CCO)CCCOc1ccc2c(Nc3cc(CC(=O)Nc4cccc(F)c4)[nH]n3)ncnc2c1 [Barasertib-HQPA] (10 µM) | 0 |
| N#C/C(=C\c1ccc(O)c(O)c1)C(=O)NCc1ccccc1 (10 µM) | 0 |
| COc1nccc(-c2c(-c3ccc(F)cc3)ncn2C2CCC(O)CC2)n1 (stereo unspecified) (10 µM) | 0 |
| O=c1c(-c2ccc(O)cc2)coc2cc(O)cc(O)c12 [Genistein] (10 µM) | 0 |
| CCOc1cc2ncc(C#N)c(Nc3ccc(OCc4ccccn4)c(Cl)c3)c2cc1NC(=O)/C=C/CN(C)C [Neratinib] (10 µM) | 0 |
| CN1CCC(Nc2ncc3ncnc(Nc4ccc(F)c(Cl)c4)c3n2)CC1 [Falnidamol] (10 µM) | 0 |
| O=c1c(O)c(-c2ccc(O)c(O)c2)oc2cc(O)cc(O)c12 [Quercetin (dihydrate)] (10 µM) | 0 |
| COc1ccc(C=C(C#N)c2cccnc2)cc1OC (10 µM) | 0 |
| Nc1ncnc2c1c(-c1ccc(Oc3ccccc3)cc1)cn2C1CCCC1 (2.5 µM) | 0 |
| COc1cc2nc(C)nc(N[C@H](C)c3cc(N)cc(C(F)(F)F)c3)c2cc1O[C@H]1CCOC1 (10 µM) | 0 |
| N#CC(=Cc1ccc(O)c(O)c1)C(=O)NCc1ccccc1 (mixture of isomers) (10 µM) | 0 |
| O=C1Cc2c([nH]c3ccc(Br)cc23)-c2ncccc2N1 [1-Azakenpaullone] (10 µM) | 0 |
| COc1cc2c(Nc3ccc(Br)cc3F)ncnc2cc1OCCn1ccnn1 (10 µM) | 0 |
| CNc1nc(-c2ccc3c(N)n[nH]c3c2)cc(N2C[C@@H](C(=O)NC3CCCCC3)CC[C@H]2C)n1 (10 µM) | 0 |
| Cc1cc(F)c(C(=O)Nc2cccc(-c3nncn3C(C)C)n2)cc1-n1cnc(C2CC2)c1 [Selonsertib] (10 µM) | 0 |
| COc1cc(C)c(Sc2cnc(NC(=O)c3ccc(CNC(C)C(C)(C)C)cc3)s2)cc1C(=O)N1CCN(C(C)=O)CC1 (stereo unspecified) (2.5 µM) | 0 |
| CCN(CC)CCCCNc1ncc2cc(-c3c(Cl)cccc3Cl)c(NC(=O)NC(C)(C)C)nc2n1 (2.5 µM) | 0 |
| COc1cc(C=C(C#N)C(N)=O)cc(CSc2nc3ccccc3s2)c1O (10 µM) | 0 |
| C[C@]1(O)C[C@@H](c2nc(-c3ccc4ccc(-c5ccccc5)nc4c3)c3c(N)nccn32)C1 [Linsitinib] (2.5 µM) | 0 |
| CCN1CCN(c2ccc(Nc3cc(N(C)C(=O)Nc4c(Cl)c(OC)cc(OC)c4Cl)ncn3)cc2)CC1 [Infigratinib] (10 µM) | 0 |
| COc1c(CC=C(C)C)c(O)cc2oc(=O)c(-c3ccc(O)cc3O)cc12 [Glycycoumarin] (10 µM) | 0 |
| Cc1cc(C(=O)Nc2cccc(C(=O)Nc3cccc(C(F)(F)F)c3)c2)on1 (10 µM) | 0 |
| Cn1c(=O)c(Oc2ccc(F)cc2F)cc2cnc(NC3CCOCC3)nc21 [R1487 (Hydrochloride)] (10 µM) | 0 |

Shown field by field: 2 of the compounds above.
Cc1c[nH]c2nccc(Oc3c(F)cc(Nc4cc(Cl)nc(N)n4)cc3F)c12 (10 µM)
  number of time points: 0
CN1CCC(Nc2ncc3ncnc(Nc4ccc(F)c(Cl)c4)c3n2)CC1 [Falnidamol] (10 µM)
  number of time points: 0
